For the experiment, the target named is CBP, endogenous [human (endogenous in MCF7 and MDA-MB-453)]. Kind of experiment: co-immunoprecipitation (IP T7, western blot CBP), band intensity given. The settings on record: MDA-MB-453 cells; cell lysates (800 ug).

The substance “T7 tagged FoxM1 wild type (WT) mutant T596A [not stated] / CBP, endogenous [human (endogenous in MCF7 and MDA-MB-453)] chain 1 T596A” returned a response of 22.1.
The substance “T7 tagged FoxM1 wild type (WT) mutant S715D; S724D [not stated] / CBP, endogenous [human (endogenous in MCF7 and MDA-MB-453)] chain 1 S715D, chain 1 S724D” registered a response of 64.9.

The values are drawn from PMC5384083.
